Counter-ions that a name gives are not always drawn. The list shows a part of the results. Part of the spread comes from offsets between plates or batches.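 HEK293 lines stably express B-domain-deleted factor VIII fused to Gaussia luciferase, wild type or a misfolding-prone missense mutant. Scores equal triplicate-well mean luminescence minus DMSO mean, divided by DMSO standard deviation; scores of 2 or higher are hits. Low scores may indicate reduced secretion or worse cell viability.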

One assay relates to HEK293 WT BDD-FVIII-Gluc. In words: secreted FVIII-Gluc luciferase Z-score vs DMSO control; higher = more FVIII-Gluc secretion. To be noted: 5 µM; 24 h.
In assay [1] the test system is HEK293 p.N1941S BDD-FVIII-Gluc. The description is as above. To be noted: 5 µM; 24 h.

Consider `Cn1c([N+](=O)[O-])cnc1COC(N)=O` [Ronidazole], for which the “secreted FVIII-Gluc luciferase Z-score” value is inactive: -1.08 in the assay with HEK293 WT BDD-FVIII-Gluc and inactive: -0.565 in assay [1].
For the compound `CC[C@H]1OC(=O)[C@H](C)[C@@H](O[C@H]2C[C@@](C)(OC)[C@@H](O)[C@H](C)O2)[C@H](C)[C@@H](O[C@@H]2O[C@H](C)C[C@H](N(C)C)[C@H]2O)[C@](C)(O)C[C@@H](C)/C(=N\OCOCCOC)[C@H](C)[C@@H](O)[C@]1(C)O` [Roxithromycin (Roxl-150)], the “secreted FVIII-Gluc luciferase Z-score” value is inactive: -1.66 in the assay with HEK293 WT BDD-FVIII-Gluc and inactive: -4.85 in assay [1].
In the same order, the values of `OCC(O)CN1CCN(c2ccccc2)CC1` (configuration not stated) [Dropropizine] are inactive: 0.542 and inactive: 0.297.
For `CN(C)c1ccc(C(=C2C=CC(=[N+](C)C)C=C2)c2ccc(N(C)C)cc2)cc1` [Crystal violet], the “secreted FVIII-Gluc luciferase Z-score” value was inactive: -7.98 in the assay on HEK293 WT BDD-FVIII-Gluc and inactive: -10.6 in assay [1].
`CCN(CC)CCOc1ccc(C(=C(Cl)c2ccccc2)c2ccccc2)cc1` [Clomifene citrate (Serophene)]: the “secreted FVIII-Gluc luciferase Z-score” value is inactive: 1.03 in the assay on HEK293 WT BDD-FVIII-Gluc and inactive: -2.9 in assay [1].
On the same counts, the results for `CCOc1cc(N)c(Cl)cc1C(=O)NCC1CN(Cc2ccc(F)cc2)CCO1` (configuration not stated) [Mosapride citrate] are inactive: -1.48 and inactive: -1.48.
Consider `CN(C)CC/C=C1/c2ccccc2Sc2ccc(Cl)cc21` [Chlorprothixene], for which the “secreted FVIII-Gluc luciferase Z-score” value in the assay with HEK293 WT BDD-FVIII-Gluc was inactive: -3.54; in assay [1], inactive: -1.91.
On the same counts, the results for `O=C([O-])c1ccccc1O.[Na+]` [Sodium salicylate] are inactive: 1.58 and inactive: 0.471.
`CNS(=O)(=O)CCc1ccc2[nH]cc(C3CCN(C)CC3)c2c1` [Naratriptan HCl]: the “secreted FVIII-Gluc luciferase Z-score” value with HEK293 WT BDD-FVIII-Gluc was inactive: -4.47; in assay [1] it was inactive: -0.939.
In the same order, the values of `CN[C@@H]1[C@H](O)[C@H](NC)[C@H]2O[C@@]3(O)C(=O)C[C@@H](C)O[C@H]3O[C@@H]2[C@H]1O` [Spectinomycin  hydrochloride] are inactive: -1.8 and inactive: -0.557.
In the case of `CC1(C)S[C@@H]2[C@H](NC(=O)[C@H](N)c3ccccc3)C(=O)N2[C@H]1C(=O)O` [Ampicillin Trihydrate], the “secreted FVIII-Gluc luciferase Z-score” value is inactive: -0.779 in the assay on HEK293 WT BDD-FVIII-Gluc and inactive: 0.221 in assay [1].
For `COc1ccc2cc(CCC(C)=O)ccc2c1` [Nabumetone], the results for the “secreted FVIII-Gluc luciferase Z-score” value (in the assay with HEK293 WT BDD-FVIII-Gluc; in assay [1]) were inactive: -1.05 and inactive: -0.901, respectively.
In the same order, the values of `Cc1ccccc1N1C(=O)c2cc(S(N)(=O)=O)c(Cl)cc2NC1C` (configuration not stated) [Metolazone (Zaroxolyn)] are inactive: -4.36 and inactive: 0.695.
Consider `Nc1cccc2c1C(=O)N(C1CCC(=O)NC1=O)C2=O` (configuration not stated) [Pomalidomide], for which the “secreted FVIII-Gluc luciferase Z-score” value with HEK293 WT BDD-FVIII-Gluc is inactive: -1.99; in assay [1], inactive: -0.579.
On the same counts, the results for `c1ccc2c(CC3=NCCN3)cccc2c1` [Naphazoline hydrochloride (Naphcon)] are inactive: 0.0547 and inactive: -1.92.
On the same counts, the results for `CS(=O)(=O)Nc1ccc([N+](=O)[O-])cc1Oc1ccccc1` [Nimesulide] are inactive: -0.296 and inactive: -0.977.
In the same order, the values of `CC(=O)N1CCN(c2ccc(OCC3COC(Cn4ccnc4)(c4ccc(Cl)cc4Cl)O3)cc2)CC1` (configuration not stated) [Ketoconazole] are inactive: -3.94 and inactive: -2.33.
Regarding `Nc1cc(C(Cl)=C(Cl)Cl)c(S(N)(=O)=O)cc1S(N)(=O)=O` [Clorsulon], the results for the “secreted FVIII-Gluc luciferase Z-score” value (with HEK293 WT BDD-FVIII-Gluc; in assay [1]) were inactive: -2.64 and inactive: -2.4, respectively.
On the same counts, the results for `CCc1cc(C(N)=S)ccn1` [Ethionamide] are inactive: -1.84 and inactive: 0.375.
In the same order, the values of `Cc1nnc(C(=O)NC(C)(C)c2nc(C(=O)NCc3ccc(F)cc3)c(O)c(=O)n2C)o1` [Raltegravir (MK-0518)] are inactive: -1.2 and inactive: -0.504.
With `C/C(=C\C(=O)OCCCCCCCCC(=O)O)C[C@@H]1OC[C@H](C[C@@H]2O[C@H]2[C@@H](C)[C@H](C)O)[C@@H](O)[C@H]1O` [Mupirocin], the results for the “secreted FVIII-Gluc luciferase Z-score” value (in the assay on HEK293 WT BDD-FVIII-Gluc; in assay [1]) were inactive: 0.658 and inactive: 1.77, respectively.
With `COc1nc(C)nc(Cl)c1NC1=NCCN1` [Moxonidine], the “secreted FVIII-Gluc luciferase Z-score” value in the assay with HEK293 WT BDD-FVIII-Gluc is inactive: -0.486; in assay [1] it was inactive: -0.286.
On the same counts, the results for `Clc1ccc(COC(Cn2ccnc2)c2ccc(Cl)cc2Cl)c(Cl)c1` (configuration not stated) [Miconazole (Monistat)] are inactive: -1.62 and inactive: -2.08.
On the same counts, the results for `COc1ccccc1OCC(O)COC(N)=O` (configuration not stated) [Methocarbamol (Robaxin)] are inactive: -0.309 and inactive: 0.528.
For `CCC[C@@H]1C[C@@H](C(=O)N[C@@H]([C@H]2O[C@H](SC)[C@H](O)[C@@H](O)[C@H]2O)[C@H](C)Cl)N(C)C1` [Clindamycin hydrochloride (Dalacin)], the “secreted FVIII-Gluc luciferase Z-score” value with HEK293 WT BDD-FVIII-Gluc was inactive: -1.35; in assay [1], inactive: -1.67.
In the same order, the values of `CCCC(=O)O[C@]1(C(=O)COC(C)=O)CC[C@H]2[C@@H]3C[C@H](F)C4=CC(=O)C=C[C@]4(C)[C@@]3(F)[C@@H](O)C[C@@]21C` [Difluprednate] are active: 11.1 and active: 4.75.

The record behind these values is the supplement of paper PMC12024529.
